# Reference: PubChem BioAssay AID1347076 (National Center for Advancing Translational Sciences (NCATS), 2019)
# The campaign covered roughly 400,000 compounds. About 13,000 (3.2%) were called active. Inconclusive results, whose numbers are uncertain, are shown with a selection of clear calls. Calls follow the shape of the dose curve; as a rule, active = well fitted cell-killing curve with a large enough effect; inconclusive = small, poorly fitted or top-dose-only effect, or effect the other way; inactive = flat fitted curve, though single readings scatter. Where the call is inconclusive, the potency comes from a doubtful curve fit.
# Assay: qHTS assay for MDR1-selective chemotherapeutics: Primary screen using the drug-selected MDR subline cells KB-V1; also: nearly all actives have a fitted effect of over 60% in size
# Conditions: KB-V1 MDR cells viability, CellTiter-Glo, 72 h; activity change, negative = cytotoxicity: at 46.1 µM (top of the series)
# Outline: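 Compound-treated KB-V1 multidrug-resistant cells, 72 h, 37 degrees C; viability by CellTiter-Glo. Fitted qHTS curves give the values.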
# % is scaled to controls: 0 for no effect and ±100 for the full control effect; potency is read from the fitted curve at half-maximal effect.
SMILES,Potency,"activity change, negative = cytotoxicity"
COc1ccc(/C=C/C(=O)c2ccc[nH]2)c(OC)c1OC,"inconclusive: 18.4 µM [cytotoxic, single point]",–
O=S(=O)(Cc1ccccc1)N1CCC(c2nc(-c3cccs3)no2)CC1,active: 20.6 µM,–
N#CC1(C#N)C(C(N)=O)C1c1ccccc1 (stereo not drawn),"inconclusive: 1.84 µM [rising, full curve]",–
COc1cccc(NC(=O)Cn2c(=O)n(CCCC(=O)NCc3ccc4c(c3)OCO4)c(=O)c3ccccc32)c1,"inconclusive: 16.4 µM [rising, partial curve, poor fit]",–
O=C(CCl)N=c1sccn1Cc1ccc(Cl)cc1Cl,active: 18.4 µM,–
O=C(NCc1cccc(Br)c1)C1CC(c2cc(C(F)(F)F)cc(C(F)(F)F)c2)=NO1 (stereo not drawn),"inconclusive: 29.1 µM [cytotoxic, single point]",–
CCOc1cccc2cc(C(=O)NCc3ccc(C)cc3)c(=N)oc12,–,inactive: -16.3%
Cn1cc(CNCCCn2ncc3ccccc32)c(-c2ccccc2F)n1,"inconclusive: 8.2 µM [cytotoxic, partial curve]",–
CC(=C/c1ccccc1)/C=N/Nc1nc(N2CCCCC2)nc(N2CCCCC2)n1,"inconclusive: 8.2 µM [cytotoxic, partial curve]",–
Cc1onc(-c2ccccc2)c1C(=O)OCC(=O)Nc1ccccc1Cl,"inconclusive: 18.4 µM [cytotoxic, single point]",–
COc1ccc(-c2c(C)nn3c(N4CCC(C(=O)NCCC(C)C)CC4)cc(C)nc23)cc1OC,"inconclusive: 14.6 µM [rising, partial curve, poor fit]",–
CC1=CC(C)(C)N(S(=O)(=O)c2ccc(F)cc2)c2ccc(C)cc21,active: 7.31 µM,–
NCCCCCc1nnc(SC/C=C/c2ccccc2)o1,–,inactive: 5.52%
COc1cc(C(=O)N/N=C/c2sc(N3CCOCC3)nc2-c2ccccc2)cc(OC)c1OC,–,inactive: -20.8%
COc1ccc(C(OCC(O)CN(C)C2CCCCC2)c2ccc(OC)cc2)cc1 (stereo not drawn),"inconclusive: 10.3 µM [cytotoxic, partial curve, poor fit]",–
Cc1cccc(NC(=O)c2cccc(S(=O)(=O)N3CCCC3)c2)n1,"inconclusive: 16.4 µM [cytotoxic, single point]",–
CS(=O)(=O)c1ccccc1COC(=O)Nc1ccc(Cl)cc1,"inconclusive: 20.6 µM [cytotoxic, single point]",–
Cc1ccc2nc(SCC(=O)Nc3cc(C(F)(F)F)ccc3N3CCOCC3)[nH]c2c1,"inconclusive: 0.651 µM [cytotoxic, full curve, poor fit]",–
CCc1ccc(-c2[nH]c3c(c2-c2c(-n4cccc4)n(C)c(=O)n(C)c2=O)c(=O)n(C)c(=O)n3C)cc1,"inconclusive: 29.1 µM [rising, single point]",–
Cn1ccsc1=NC(=O)c1ccc(OC(F)(F)F)cc1,–,inactive: -2.36%
CCn1c(CSc2nnc(-c3ccc4c(c3)OCO4)o2)nc2cc(S(=O)(=O)N(C)C)ccc21,"inconclusive: 5.17 µM [cytotoxic, partial curve]",–
CCSC1=C(C#N)C(c2cccs2)C(C(=O)OC)=C(C)N1 (stereo not drawn),active: 20.6 µM,–
NC1=NC(=O)/C(=C/c2ccccc2OS(=O)(=O)c2ccc3ccccc3c2)S1,–,inactive: 5.05%

# 4 entries picked at random from the list so far:
SMILES,Potency,"activity change, negative = cytotoxicity"
COc1cc(C(=O)N/N=C/c2sc(N3CCOCC3)nc2-c2ccccc2)cc(OC)c1OC,–,inactive: -20.8%
COc1ccc(C(OCC(O)CN(C)C2CCCCC2)c2ccc(OC)cc2)cc1 (stereo not drawn),"inconclusive: 10.3 µM [cytotoxic, partial curve, poor fit]",–
CCSC1=C(C#N)C(c2cccs2)C(C(=O)OC)=C(C)N1 (stereo not drawn),active: 20.6 µM,–
CCOc1cccc2cc(C(=O)NCc3ccc(C)cc3)c(=N)oc12,–,inactive: -16.3%

# Further entries

SMILES,Potency,"activity change, negative = cytotoxicity"
COc1ccc(N2CCN(C(=O)c3cc(=O)c4ccc(C)cc4o3)CC2)cc1,"inconclusive: 18.4 µM [cytotoxic, single point]",–
NS(=O)(=O)c1ccc(CCNC(=O)c2cccc(S(=O)(=O)N3CCCC3)c2)cc1,"inconclusive: 9.2 µM [rising, partial curve]",–
O=C(O)CCCC(=O)N1N=C(c2ccccc2)CC1c1cccs1 (stereo not drawn),–,inactive: 10.1%
S=C1NC[C@H](Cc2cccc3ccccc23)N1CC1CCCCC1,–,inactive: 1.05%
CCOc1ccc(NC(=O)C(=O)N/N=C\c2ccc(CNS(=O)(=O)c3ccccc3)o2)cc1,"inconclusive: 6.51 µM [rising, partial curve]",–
Cc1sc(NC(=O)CN(Cc2ccccc2)C(=O)C(C)C)c(C(N)=O)c1C,"inconclusive: 20.6 µM [cytotoxic, single point]",–
CCOC(=O)c1cc(NC(=O)NC2CCCCC2)c(C)nc1C,"inconclusive: 16.4 µM [cytotoxic, partial curve, poor fit]",–
COc1ccc(CNC(=O)C(c2ccncc2)N(C(=O)Cc2cccs2)c2ccc(C)cc2)cc1 (stereo not drawn),"inconclusive: 29.1 µM [cytotoxic, single point]",–
COCCCNC(=O)/C(C#N)=C/c1cccc(NC(=O)c2ccccc2Cl)c1,"inconclusive: 16.4 µM [cytotoxic, partial curve]",–
COCCCNC(=O)c1ccc(NC(=O)N2CCCCc3ccccc32)cc1,–,inactive: -3.48%
CCOc1ccc(NC(=O)CN(C)C(=O)C2CCCC2)cc1OCC,–,inactive: -8.62%
C=C1CC(COc2cc(=O)oc3ccccc23)(c2ccccc2)OC1=O (stereo not drawn),"inconclusive: 3.66 µM [cytotoxic, partial curve, poor fit]",–
CCN(CC)CCCNC(=O)C1c2ccccc2C(=O)N(C)C1c1ccc(OC)cc1 (stereo not drawn),"inconclusive: 0.517 µM [cytotoxic, full curve, poor fit]",–
CCOC(=O)C1(CCCc2ccccc2)CCN(C(=O)CCOC)CC1,"inconclusive: 29.1 µM [cytotoxic, single point]",–
CCN(CC)S(=O)(=O)c1ccc(C(=O)Nc2ccc3c(c2)OCO3)cc1,–,inactive: -29.6%
Cc1ccc(C(C)C)c(OCCCN(C)Cc2ccccc2)c1,active: 11.6 µM,–
CCOC(=O)C1=C(COC(=O)c2ccc(Cl)c(S(=O)(=O)N3CCOCC3)c2)NC(=O)NC1C (stereo not drawn),"inconclusive: 29.1 µM [rising, single point]",–
COc1ccc(Cl)cc1NC(=O)CCCn1c(=O)c2cccn2c2cccnc21,"inconclusive: 4.61 µM [cytotoxic, partial curve, poor fit]",–
N#CCCn1cc(C(=O)N2CCOCC2)c(-c2ccc3c(c2)OCCO3)n1,"inconclusive: 29.1 µM [rising, single point]",–
CCc1cccc(C)c1NC(=O)COC(=O)c1c2c(nc3ccccc13)/C(=C\c1cccs1)CCC2,active: 14.6 µM,–
Cc1nn(Cc2ccccc2)c(Cl)c1C(=O)OCC(=O)NC(=O)NC12CC3CC(CC(C3)C1)C2,–,inactive: -0.658%
Cn1c(Cc2ccccc2)[n+](C)c2ccccc21,–,inactive: 0.373%
Cc1n[nH]c(C)c1N1C(=O)c2cccc3c(N4CCCCCC4)ccc(c23)C1=O,active: 20.6 µM,–

SMILES,Potency,"activity change, negative = cytotoxicity"
CC(C)COc1ccc(C(=O)OCC(=O)N(C)CC(=O)Nc2ccc(F)cc2)cc1,"inconclusive: 16.4 µM [cytotoxic, single point]",–
CC(NC(=O)c1cc2c(=O)n3ccccc3nc2n(CC2CCCO2)c1=N)c1ccccc1 (stereo not drawn),"inconclusive: 11.6 µM [cytotoxic, partial curve]",–
CC[C@H]1c2[nH]c3ccc(C(C)C)cc3c2[C@@H]2CCN3C(=O)CCC[C@H]1[C@H]23,"inconclusive: 25.9 µM [cytotoxic, partial curve, poor fit]",–
CCCC[n+]1ccn(-c2nc3c([N+](=O)[O-])cccc3n2C)c1,–,inactive: 15.6%
c1ccc(Nc2scc(-c3ccccc3)[n+]2Cc2ccco2)cc1,"inconclusive: 16.4 µM [cytotoxic, single point]",–
CCOC(=O)C1C(c2ccc([N+](=O)[O-])cc2)C2C(=O)NN=C2CC1(C)O (stereo not drawn),"inconclusive: 13 µM [rising, single point]",–
Cc1cccc(-n2nc([N+](=O)[O-])c(=NCc3cccnc3)n2O)c1,"inconclusive: 29.1 µM [cytotoxic, single point]",–
Cc1ccc(NC2=CC(=O)C(=O)c3ccccc32)c(C)c1,"inconclusive: 29.1 µM [cytotoxic, single point]",–
Cc1cccc(N(Cc2ccccc2)C(=O)c2cccc(S(=O)(=O)N3CC(C)OC(C)C3)c2)c1 (stereo not drawn),"inconclusive: 5.8 µM [cytotoxic, full curve]",–
COc1cccc(CN2CCN(Cc3nc4c(s3)CCCC4)CC2CCO)c1 (stereo not drawn),"inconclusive: 16.4 µM [cytotoxic, partial curve]",–
COc1cc(/C=N/n2c(C3CCCCC3)n[nH]c2=S)cc(OC)c1O,–,inactive: 8.74%
CCOc1ccccc1/C=C(/NC(=O)c1ccccc1)C(=O)NC(C)c1ccccc1 (stereo not drawn),"inconclusive: 7.31 µM [cytotoxic, partial curve]",–
O=C(CSC1=NS(=O)(=O)c2cc(Cl)ccc2N1)Nc1ccccc1F,–,inactive: -1.67%
Cc1ccc2[nH]c(=O)c3cc(C(=O)N(C)c4ccccc4C)sc3c2c1,"inconclusive: 8.2 µM [cytotoxic, partial curve]",–
CCCCOc1ccc(S(=O)(=O)Nc2cccc(-c3ccc(N4CCOCC4)nn3)c2)cc1,"inconclusive: 0.0073 µM [cytotoxic, full curve]",–
COc1ccccc1-c1nc(NC(C)=O)n[nH]1,–,inactive: 0%
COc1ccccc1-c1c(C)nn2c(N3CCN(c4ccc(Cl)cc4)CC3)cc(C)nc12,–,inactive: 0%
Cc1c(Cl)cccc1NC(=O)[C@@]1(CC(=O)O)CC(/C=C/c2ccccc2)=NO1,"inconclusive: 18.4 µM [cytotoxic, single point]",–
O=C(NCCCn1ccnc1)c1cc(-c2ccccc2)on1,"inconclusive: 20.6 µM [cytotoxic, single point]",–
Cc1ccc(NC(=O)CSc2ncnc3ccccc23)cc1S(=O)(=O)N1CCCCCC1,"inconclusive: 18.4 µM [cytotoxic, single point]",–
Cc1ccc(CN(C)C(=O)c2ccc(S(=O)(=O)N(C)c3ccccc3)cc2)o1,–,inactive: -20.4%
CCCCCCOc1ccc(N2C(=O)CC(N(CCc3ccc(S(N)(=O)=O)cc3)C(C)=O)C2=O)cc1 (stereo not drawn),–,inactive: 6.45%
